In the experiment the target is T1, NTwt (wildtype N-terminal (NT) fragment of Euprosthenops australis major ampullate spidroin 1) (Euprosthenops australis).
T1 chain: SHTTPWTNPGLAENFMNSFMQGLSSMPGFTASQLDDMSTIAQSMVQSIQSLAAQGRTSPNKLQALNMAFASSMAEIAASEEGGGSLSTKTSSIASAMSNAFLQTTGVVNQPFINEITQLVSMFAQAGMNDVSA
The experiment is described as follows: 2D [15N,1H]-HSQC NMR; homodimerization at pH 5.5. The note with it: remark: other sources report otherwise.

No constants are given. Whether binding was seen depends on the method and setting. Some entries that bind do so weakly or less than the wild type.

B1: NTwt (wildtype N-terminal (NT) fragment of Euprosthenops australis major ampullate spidroin 1) (protein)
chain: SHTTPWTNPGLAENFMNSFMQGLSSMPGFTASQLDDMSTIAQSMVQSIQSLAAQGRTSPNKLQALNMAFASSMAEIAASEEGGGSLSTKTSSIASAMSNAFLQTTGVVNQPFINEITQLVSMFAQAGMNDVSA
For the molecule B1, the binding result is “binds”.

(Values after US20200207819A1 (SPIBER TECHNOLOGIES, published 2020).)
